Reference: article PMC3095566
These are yes or no findings as the source states them, for the method shown. Binding seen in cells or lysates may run through a third protein. Some entries that bind do so weakly or less than the wild type. Where a sequence is shown, tags or fusion partners need not be part of it.

The chains behind the UniProt entries cited, without tags or fusion partners.
UniProt P62258: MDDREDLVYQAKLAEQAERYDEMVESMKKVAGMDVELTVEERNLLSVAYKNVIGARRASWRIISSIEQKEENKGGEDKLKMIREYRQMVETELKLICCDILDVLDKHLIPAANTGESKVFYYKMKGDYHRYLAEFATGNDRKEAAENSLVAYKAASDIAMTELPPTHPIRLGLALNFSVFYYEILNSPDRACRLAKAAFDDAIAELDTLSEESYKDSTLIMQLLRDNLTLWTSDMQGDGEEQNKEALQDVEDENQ

Molecular target: T1, FLAG-tagged KRT23 (UniProt Q9C075)
T1 sequence: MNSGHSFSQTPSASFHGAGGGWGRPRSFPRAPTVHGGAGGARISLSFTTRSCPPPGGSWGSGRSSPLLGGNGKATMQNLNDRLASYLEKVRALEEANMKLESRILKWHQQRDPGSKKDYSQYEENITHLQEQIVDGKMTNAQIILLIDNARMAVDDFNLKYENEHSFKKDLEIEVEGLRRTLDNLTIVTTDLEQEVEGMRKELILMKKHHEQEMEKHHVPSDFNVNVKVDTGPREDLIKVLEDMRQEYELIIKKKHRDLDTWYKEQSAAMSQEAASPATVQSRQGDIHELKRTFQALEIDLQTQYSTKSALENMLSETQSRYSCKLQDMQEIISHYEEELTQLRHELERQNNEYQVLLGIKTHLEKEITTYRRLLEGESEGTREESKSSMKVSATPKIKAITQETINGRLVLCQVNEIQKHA
Experiment: co-IP; HEK 293T cells transfected with Flag-KRT23 and/or VSV-G-14-3-3ε, lysed in RIPA buffer; precipitation with ANTI-FLAG M2-affinity agarose overnight at 4°C; immunoblot

- binding: binds
Substance: VSV-G-tagged 14-3-3ε (from UniProt P62258 1-255)
